Test results from US20240335539A1, “MODULATION OF BCL-2 TO ENHANCE CHIMERIC ANTIGEN RECEPTOR CANCER IMMUNOTHERAPY EFFICACY” (The Trustees of the University of Pennsylvania, priority 2021, published 2024).
For at least one compound, name, drawing or mass did not settle the structure.

Tests used:
[1] = system: OCI-Ly18, MINO, NALM6, primary MCL; assay: CART19/venetoclax combination tumor killing, bioluminescence cytotoxicity assay; assay type: cell-based; conditions: CART19 with CD28 or 4-1BB co-stimulatory domain; E:T 0.1:1; venetoclax 20 nM
MOLM-14 and KG-1 = assay: CART33/venetoclax combination tumor killing in AML cell lines; assay type: cell-based; conditions: venetoclax 125 nM (MOLM-14), 50 nM (KG-1) co-administered with CART33; 48h
[2] = system: NHL cells and B-ALL cells; assay: Caspase 3/7 activity in cancer cells co-cultured with CART19, flow cytometry; assay type: cell-based; conditions: combined with CART19; E:T 0.1:1; venetoclax 10 nM
OCI-Ly18 = OCI-Ly18 subcutaneous xenograft model; assay type: in vivo, NSG mice
NALM6 = NALM6 xenograft model; assay type: in vivo; conditions: addition of venetoclax 100 mg/kg to CART19
Procedure: Either venetoclax (100 mg/kg) or vehicle were administered to the mice via oral gavage daily. To monitor the survival of CART in vivo, mouse blood ([…]) was collected from submandibular vein of mouse on day 15 after CART infusion and measured the absolute number of human CD3+ T cells in mouse blood using flow cytometry. Tumor volume was monitored by measuring luminescen intensity in mouse by IVIS system. […] One-way ANOVA with post-hoc Tukey test was performed. […] All data represent mean±SD. *P<0.05. ns: not significant. UTD: untransduced T cell. CART19: anti-CD19 CAR T cell. CART19-BCL2(WT): BCL-2(WT) overexpressing anti-CD19 CAR T cell.
All data represent mean±SD.
To investigate this hypothesis, the expansion and persistence of CART19 cells in the peripheral blood of NSG mice treated with CART19 plus venetoclax or CART19 alone was analyzed using flow cytometry. […] To test whether prolonged exposure to venetoclax leads to CART cell toxicity, an in vitro venetoclax toxicity assay was performed using CART cells manufactured from 8 different T cell donors. […] In order to discern whether the reduced survival was due to increased apoptosis or reduction of proliferation, the caspase 3/7 activity in CART19 was assessed in the presence or absence of venetoclax. […]

[3] = system: mantle cell lymphoma (MCL); assay: Clinical outcomes of MCL patients after brexucabtagene autoleucel by venetoclax bridging therapy; assay type: in vivo, human; conditions: venetoclax bridging vs no venetoclax, p=0.018
Procedure: FIGS. 13A-13H illustrate the finding that chromosomal alterations of BCL-2 in lymphoma patients associate with poor prognosis of CART therapy. FIG. 13A is a schematic of the strategy used herein to investigate whether genetic alteration of BCL-2 affects CART's anti-tumor clinical response. Pre-CART biopsies from patients with LCL were analyzed by fluorescence in situ hybridization (FISH) to search for BCL-2 chromosomal aberration. […] FIG. 13F is a schematic of the strategy used herein to investigate the impact of venetoclax bridging therapy on CART19's clinical response in MCL patients. […]
For the large B cell lymphoma cohort, clinical data were collected from patients diagnosed with DLBCL not otherwise specified (NOS), high-grade B cell lymphoma (HGBCL) NOS, HGBCL with MYC and BCL-2 and/or BCL-6 rearrangements, and transformed follicular lymphoma treated at the University of Pennsylvania using two commercial CART19 products (tisagenlecleucel or axicabtagene ciloleucel, UPCC44420) or enrolled in the CTL019 clinical trial NCT02030834. Only patients evaluated for chromosomal alterations involving the BCL-2 locus by interim FISH analysis were included in the current study. […] Disease response was determined according to Lugano classification. […]

tumor cells = conditions: Karlsson et al. 2013; Yang et al. 2020; cited from earlier work

## CC1(C)CCC(CN2CCN(c3ccc(C(=O)NS(=O)(=O)c4ccc(NCC5CCOCC5)c([N+](=O)[O-])c4)c(Oc4cnc5[nH]ccc5c4)c3)CC2)=C(c2ccc(Cl)cc2)C1 [venetoclax]
[1]
  CART cell-mediated tumor killing: enhanced CART cell-mediated tumor killing regardless of co-stimulatory domains
MOLM-14 and KG-1
  Tumor killing by anti-CD33 CAR T cell: significantly improved
[2]
  Caspase 3/7 activity in cancer cells: synergistic increase of caspase 3/7 activity
OCI-Ly18; sub-optimal doses: CART19 2x10^6 i.v., venetoclax 25 mg/kg/daily for 3 weeks, oral gavage
  Tumor growth / tumor control: neither single-agent venetoclax nor CART19 at these doses delayed tumor growth
OCI-Ly18; venetoclax 25, 50, 100 mg/kg daily oral gavage for two weeks
  Tumor control, dose escalation: dose-dependent tumor control
NALM6
  Enhancement of anti-tumor activity: minimal enhancement of anti-tumor activity
[3]
  event-free survival: longer
Tumor cells
  CART-mediated tumor killing (literature): enhanced CART19 mediated tumor killing
